The values below are quoted from earlier work in patent US20150174273A1, “IMAGING AND THERAPEUTIC METHODS FOR TREATING PARATHYROID TUMORS” (EMORY UNIVERSITY, priority 2012, published 2015).

Molecules are shown by their SMILES.

In the data set the test system is human parathyroid tumors. The following applies: PT adenomas; cited from earlier work.

For the compound `[99Tc].[C-]#[N+]CC(C)(C)OC.[C-]#[N+]CC(C)(C)OC.[C-]#[N+]CC(C)(C)OC.[C-]#[N+]CC(C)(C)OC.[C-]#[N+]CC(C)(C)OC.[C-]#[N+]CC(C)(C)OC` [^99mTc MIBI], the “share of adenomas visualized” value was 70%-90.
